From PMC7323874, “Vancomycin Resistance Is Overcome by Conjugation of Polycationic Peptides” (Angewandte Chemie (International Ed. in English), 2020)

Assays:
P. aeruginosa ATCC 27853 = assay: microbe, parasite or virus in culture; assay type: cell-based; details: Pseudomonas aeruginosa, ATCC27853
Description: (§1) Antimicrobial testing – Microdilution
(§2) Antimicrobial testing was performed according to CLSI and EUCAST guidelines in microdilution.8-10 Therefore, all tested substances as well as controls were dissolved in water in different concentrations and serially diluted in MHB II (cation adjusted) on the 96-well plate. A logarithmic growing, overnight culture of the respective bacterial strain was used and adjusted to a McFarland corresponding to 1 × 10^8 cfu/ml. Afterwards the bacterial suspension was diluted to 1 ×10^6 cfu/ml and loaded on the 96-well polypropylene plates, resulting in a final bacterial concentration of 5 × 10^5 cfu/ml. After an incubation at 35 ± 1 °C for 18-20 hours (re-controlled after 24 hours) the MIC was determined as the lowest concentration without visible growth as described previously.11 For direct comparison of the tested substances, all results were calculated in mg/ml and mol/ml afterwards. […]
As further control substance, the glycopeptide antibiotic teicoplanin was evaluated. […] Resistance development in S. aureus was determined by passaging bacteria in increasing amounts of vancomycin, FU002 or, as control, fusidic acid. […]
(§3) For the validation of possible side effects provoked by the conjugates, the cytotoxic effect of the lead candidate FU002 on human cells was assessed in a colorimetric viability assay. […]

E. coli ATCC 25922 = assay: microbe, parasite or virus in culture; assay type: cell-based; details: Escherichia coli, ATCC25922
Description: as §1, §2
Resistance development in S. aureus was determined by passaging bacteria in increasing amounts of vancomycin, FU002 or, as control, fusidic acid. In principle, tubes with twofold dilutions of the compounds in 1 ml Muller Hinton broth were inoculated 1:100 with bacterial suspension. […]
as §3

## CN[C@H](CC(C)C)C(=O)N[C@H]1C(=O)N[C@@H](CC(N)=O)C(=O)N[C@H]2C(=O)N[C@H]3C(=O)N[C@H](C(=O)N[C@H](C(=O)O)c4cc(O)cc(O)c4-c4cc3ccc4O)[C@H](O)c3ccc(c(Cl)c3)Oc3cc2cc(c3O[C@@H]2O[C@H](CO)[C@@H](O)[C@H](O)[C@H]2O[C@H]2C[C@](C)(N)[C@H](O)[C@H](C)O2)Oc2ccc(cc2Cl)[C@H]1O [vancomycin]
P. aeruginosa ATCC 27853
  MIC: ≥ 640 µg/mL
E. coli ATCC 25922
  MIC: ≥ 640 µg/mL
